Test results taken from doi:10.1101/2020.06.30.180471.

B1: POLD3 (protein, UniProt Q15054 1-466)
chain: MADQLYLENIDEFVTDQNKIVTYKWLSYTLGVHVNQAKQMLYDYVERKRKENSGAQLHVTYLVSGSLIQNGHSCHKVAVVREDKLEAVKSKLAVTASIHVYSIQKAMLKDSGPLFNTDYDILKSNLQNCSKFSAIQCAAAVPRAPAESSSSSKKFEQSHLHMSSETQANNELTTNGHGPPASKQVSQQPKGIMGMFASKAAAKTQETNKETKTEAKEVTNASAAGNKAPGKGNMMSNFFGKAAMNKFKVNLDSEQAVKEEKIVEQPTVSVTEPKLATPAGLKKSSKKAEPVKVLQKEKKRGKRVALSDDETKETENMRKKRRRIKLPESDSSEDEVFPDSPGAYEAESPSPPPPPSPPLEPVPKTEPEPPSVKSSSGENKRKRKRVLKSKTYLDGEGCIVTEKVYESESCTDSEEELNMKTSSVHRPPAMTVKKEPREERKGPKKGTAALGKANRQVSITGFFQRK

Biological target: T1, SFB-SPRTN full length (FL) (UniProt Q9H040)
T1 sequence: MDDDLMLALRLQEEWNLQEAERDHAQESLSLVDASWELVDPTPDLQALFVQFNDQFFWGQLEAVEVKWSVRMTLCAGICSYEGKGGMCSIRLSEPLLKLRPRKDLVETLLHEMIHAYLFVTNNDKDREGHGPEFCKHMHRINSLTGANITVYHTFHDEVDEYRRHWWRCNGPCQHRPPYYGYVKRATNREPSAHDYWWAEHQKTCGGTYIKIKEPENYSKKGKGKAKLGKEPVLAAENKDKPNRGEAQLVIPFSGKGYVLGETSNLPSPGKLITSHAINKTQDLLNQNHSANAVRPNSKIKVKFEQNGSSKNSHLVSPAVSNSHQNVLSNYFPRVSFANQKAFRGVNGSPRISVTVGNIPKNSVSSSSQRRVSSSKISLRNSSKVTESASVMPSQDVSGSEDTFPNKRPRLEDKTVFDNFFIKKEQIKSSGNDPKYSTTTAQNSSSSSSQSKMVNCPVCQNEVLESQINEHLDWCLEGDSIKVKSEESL
Assay: affinity purification with mass spectrometry

Molecule	binding
VCP (from UniProt P55072 1-806)	binds
B1	binds

No constants are given. Whether binding was seen depends on the method and setting. Binding seen in cells or lysates may run through a third protein. These calls come from enrichment with a bait or labelling near it, and not all partners need be listed.
